Source: patent US20180037654A1
No constants are given. Whether binding was seen depends on the method and setting. Some results given as binding are weak or reduced against the parent protein; the word gives no strength.

The chains behind the UniProt entries cited, without tags or fusion partners. Where a name states a change or a piece, a line headed by the entry shows the natural chain unless it says otherwise.
UniProt P16410: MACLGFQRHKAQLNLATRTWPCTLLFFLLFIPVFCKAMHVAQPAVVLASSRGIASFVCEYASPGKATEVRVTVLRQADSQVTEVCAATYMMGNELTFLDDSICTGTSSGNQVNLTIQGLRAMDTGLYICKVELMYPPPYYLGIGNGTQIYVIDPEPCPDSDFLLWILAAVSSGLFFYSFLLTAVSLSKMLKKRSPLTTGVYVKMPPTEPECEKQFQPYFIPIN

Experiments:
human CTLA-4 (human) = human CTLA-4 (human) (UniProt P16410); test: CELISA on CHO-K1 cells transiently transfected with human CTLA-4, panel Human
Mouse = test: CELISA on CHO-K1 cells transiently transfected with mouse CTLA-4, panel Mouse

B1: hCTLA4.27A.C4 (antibody, V domains shown)
VH: QVQLQQPGAVLVRPGVSVKLSCKASGYSFTTYWMNWVKQRPGQGLEWIGMIHPSDSETSLNQAFKDKATLTIDKSSSTAYMQLSSPTSEDSAVYFCARMGRRNPYYFDYWGQGTTLTVSS
VL: DIQMTQSPVSLSVSVGETVTITCRPSENLYTNLAWYQQKQGKSPQLLVYGATNLADGVPSRFSGSGSGTQYSLRINSLQSEDFGTYYCQHLWGTPFTFGSGTKLELK
In the case of B1, the binding (human CTLA-4 (human)) is reported as “binds” and the binding (Mouse) is reported as “no binding (tested: log nM about 1.8 (about 60 nM))”.
